# Measurements from the supplement of paper PMC6411743.
# Chains of the proteins cited; added tags and fusions are not shown. Lines headed by an entry give the natural chain unless they say otherwise; changes in a name come on top.
# UniProt Q99848: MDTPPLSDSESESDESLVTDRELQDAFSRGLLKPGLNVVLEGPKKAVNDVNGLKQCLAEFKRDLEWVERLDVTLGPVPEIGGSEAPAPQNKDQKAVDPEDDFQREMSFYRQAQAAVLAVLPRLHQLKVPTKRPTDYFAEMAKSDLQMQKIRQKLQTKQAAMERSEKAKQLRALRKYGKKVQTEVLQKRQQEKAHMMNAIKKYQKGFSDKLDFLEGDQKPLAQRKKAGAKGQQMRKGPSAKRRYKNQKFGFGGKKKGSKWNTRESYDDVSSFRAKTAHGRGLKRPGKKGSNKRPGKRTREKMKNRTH
# UniProt Q6PCT2: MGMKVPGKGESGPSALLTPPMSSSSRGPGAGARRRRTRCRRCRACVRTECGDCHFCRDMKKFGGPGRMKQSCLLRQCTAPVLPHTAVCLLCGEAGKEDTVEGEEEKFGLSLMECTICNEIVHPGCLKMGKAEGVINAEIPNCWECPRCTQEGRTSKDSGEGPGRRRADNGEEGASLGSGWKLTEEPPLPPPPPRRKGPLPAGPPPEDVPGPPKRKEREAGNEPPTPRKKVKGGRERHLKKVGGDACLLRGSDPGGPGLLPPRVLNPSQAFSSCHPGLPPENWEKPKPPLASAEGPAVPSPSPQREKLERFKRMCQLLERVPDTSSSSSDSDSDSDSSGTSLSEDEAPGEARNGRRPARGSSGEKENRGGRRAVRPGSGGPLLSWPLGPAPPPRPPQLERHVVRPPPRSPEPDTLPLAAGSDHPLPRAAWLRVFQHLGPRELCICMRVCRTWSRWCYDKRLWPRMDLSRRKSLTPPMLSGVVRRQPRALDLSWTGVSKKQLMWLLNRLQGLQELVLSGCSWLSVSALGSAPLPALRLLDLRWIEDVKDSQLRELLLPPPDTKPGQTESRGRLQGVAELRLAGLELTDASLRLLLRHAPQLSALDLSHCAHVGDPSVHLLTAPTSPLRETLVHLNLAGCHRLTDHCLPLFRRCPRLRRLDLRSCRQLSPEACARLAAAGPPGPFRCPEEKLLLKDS
# UniProt Q9H9Q4: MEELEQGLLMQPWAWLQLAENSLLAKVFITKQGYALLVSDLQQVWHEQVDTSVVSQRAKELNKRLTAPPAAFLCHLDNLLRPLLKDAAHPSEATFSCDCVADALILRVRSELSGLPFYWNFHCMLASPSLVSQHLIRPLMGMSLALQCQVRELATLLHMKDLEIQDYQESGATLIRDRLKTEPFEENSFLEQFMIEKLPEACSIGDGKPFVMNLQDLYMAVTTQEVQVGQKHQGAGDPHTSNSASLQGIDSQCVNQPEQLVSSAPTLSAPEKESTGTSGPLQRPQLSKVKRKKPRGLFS
# UniProt Q9UG56: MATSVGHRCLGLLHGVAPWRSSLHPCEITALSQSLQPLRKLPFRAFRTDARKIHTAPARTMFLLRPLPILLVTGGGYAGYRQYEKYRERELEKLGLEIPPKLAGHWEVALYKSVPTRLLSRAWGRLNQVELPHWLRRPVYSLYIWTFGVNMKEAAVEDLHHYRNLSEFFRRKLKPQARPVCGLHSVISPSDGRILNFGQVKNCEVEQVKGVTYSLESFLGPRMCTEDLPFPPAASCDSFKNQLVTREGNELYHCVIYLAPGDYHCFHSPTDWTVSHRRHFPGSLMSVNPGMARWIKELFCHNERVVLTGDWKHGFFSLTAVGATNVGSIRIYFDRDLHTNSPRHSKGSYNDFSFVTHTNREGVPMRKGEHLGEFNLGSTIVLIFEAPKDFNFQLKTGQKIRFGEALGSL
# UniProt O95232: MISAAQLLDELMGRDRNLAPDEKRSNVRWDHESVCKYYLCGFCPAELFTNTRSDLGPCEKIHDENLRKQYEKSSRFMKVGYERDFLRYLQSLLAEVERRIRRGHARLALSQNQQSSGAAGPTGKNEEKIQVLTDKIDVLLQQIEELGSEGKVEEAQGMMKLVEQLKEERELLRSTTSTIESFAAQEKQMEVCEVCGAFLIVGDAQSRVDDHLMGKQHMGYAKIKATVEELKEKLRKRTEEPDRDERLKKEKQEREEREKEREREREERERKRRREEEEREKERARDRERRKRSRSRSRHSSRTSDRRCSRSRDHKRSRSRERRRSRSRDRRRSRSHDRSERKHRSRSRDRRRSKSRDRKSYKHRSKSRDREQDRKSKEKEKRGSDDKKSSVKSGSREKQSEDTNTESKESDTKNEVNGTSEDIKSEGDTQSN
# UniProt P78537: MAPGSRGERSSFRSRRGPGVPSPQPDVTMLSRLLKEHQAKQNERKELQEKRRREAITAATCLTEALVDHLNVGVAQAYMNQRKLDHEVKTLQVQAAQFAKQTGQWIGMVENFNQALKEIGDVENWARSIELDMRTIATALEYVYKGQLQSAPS
# UniProt Q96K83: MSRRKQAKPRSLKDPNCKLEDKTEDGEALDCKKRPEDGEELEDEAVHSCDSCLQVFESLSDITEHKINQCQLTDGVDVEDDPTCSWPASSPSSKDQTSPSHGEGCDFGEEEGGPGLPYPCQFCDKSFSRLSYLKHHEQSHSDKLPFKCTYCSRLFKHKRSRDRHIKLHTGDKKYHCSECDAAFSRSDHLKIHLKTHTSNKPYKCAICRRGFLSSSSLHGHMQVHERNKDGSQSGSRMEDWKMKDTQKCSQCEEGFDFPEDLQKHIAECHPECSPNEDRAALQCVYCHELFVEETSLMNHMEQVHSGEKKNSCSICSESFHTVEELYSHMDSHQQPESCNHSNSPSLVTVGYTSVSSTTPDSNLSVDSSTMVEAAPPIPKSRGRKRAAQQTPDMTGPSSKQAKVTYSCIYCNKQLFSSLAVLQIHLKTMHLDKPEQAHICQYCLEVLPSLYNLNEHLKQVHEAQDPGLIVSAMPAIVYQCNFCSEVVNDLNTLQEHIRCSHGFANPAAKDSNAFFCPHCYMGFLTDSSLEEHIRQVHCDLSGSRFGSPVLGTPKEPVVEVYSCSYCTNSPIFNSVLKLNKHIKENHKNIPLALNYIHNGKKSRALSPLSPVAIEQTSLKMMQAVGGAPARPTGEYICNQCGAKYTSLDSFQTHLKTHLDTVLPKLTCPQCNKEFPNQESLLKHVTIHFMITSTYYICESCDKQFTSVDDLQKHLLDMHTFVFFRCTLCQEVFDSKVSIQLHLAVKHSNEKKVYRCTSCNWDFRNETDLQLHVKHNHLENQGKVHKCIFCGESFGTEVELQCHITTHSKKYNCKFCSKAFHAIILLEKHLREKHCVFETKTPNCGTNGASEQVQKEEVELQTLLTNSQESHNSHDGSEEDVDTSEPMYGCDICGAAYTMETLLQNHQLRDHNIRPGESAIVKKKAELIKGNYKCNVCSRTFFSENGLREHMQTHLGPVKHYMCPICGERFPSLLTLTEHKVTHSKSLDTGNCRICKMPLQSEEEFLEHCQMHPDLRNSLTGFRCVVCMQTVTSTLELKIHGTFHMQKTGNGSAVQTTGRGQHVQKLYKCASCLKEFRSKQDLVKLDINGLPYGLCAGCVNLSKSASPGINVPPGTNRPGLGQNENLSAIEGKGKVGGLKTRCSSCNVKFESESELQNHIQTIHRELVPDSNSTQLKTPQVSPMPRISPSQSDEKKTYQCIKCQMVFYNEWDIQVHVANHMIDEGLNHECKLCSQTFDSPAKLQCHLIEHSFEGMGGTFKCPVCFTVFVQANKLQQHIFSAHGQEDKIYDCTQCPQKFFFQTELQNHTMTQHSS
# UniProt Q6P2D0: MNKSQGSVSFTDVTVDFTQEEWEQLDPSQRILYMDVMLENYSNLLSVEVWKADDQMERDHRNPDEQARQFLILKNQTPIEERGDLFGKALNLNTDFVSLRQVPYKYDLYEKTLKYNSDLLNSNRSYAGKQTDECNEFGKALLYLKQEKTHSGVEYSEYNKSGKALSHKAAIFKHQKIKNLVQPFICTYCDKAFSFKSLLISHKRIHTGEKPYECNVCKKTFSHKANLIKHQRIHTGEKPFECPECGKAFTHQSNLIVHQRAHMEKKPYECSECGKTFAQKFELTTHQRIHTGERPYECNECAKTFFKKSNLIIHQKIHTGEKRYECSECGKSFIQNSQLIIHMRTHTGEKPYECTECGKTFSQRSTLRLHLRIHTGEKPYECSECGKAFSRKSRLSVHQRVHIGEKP
# UniProt Q9UJV9: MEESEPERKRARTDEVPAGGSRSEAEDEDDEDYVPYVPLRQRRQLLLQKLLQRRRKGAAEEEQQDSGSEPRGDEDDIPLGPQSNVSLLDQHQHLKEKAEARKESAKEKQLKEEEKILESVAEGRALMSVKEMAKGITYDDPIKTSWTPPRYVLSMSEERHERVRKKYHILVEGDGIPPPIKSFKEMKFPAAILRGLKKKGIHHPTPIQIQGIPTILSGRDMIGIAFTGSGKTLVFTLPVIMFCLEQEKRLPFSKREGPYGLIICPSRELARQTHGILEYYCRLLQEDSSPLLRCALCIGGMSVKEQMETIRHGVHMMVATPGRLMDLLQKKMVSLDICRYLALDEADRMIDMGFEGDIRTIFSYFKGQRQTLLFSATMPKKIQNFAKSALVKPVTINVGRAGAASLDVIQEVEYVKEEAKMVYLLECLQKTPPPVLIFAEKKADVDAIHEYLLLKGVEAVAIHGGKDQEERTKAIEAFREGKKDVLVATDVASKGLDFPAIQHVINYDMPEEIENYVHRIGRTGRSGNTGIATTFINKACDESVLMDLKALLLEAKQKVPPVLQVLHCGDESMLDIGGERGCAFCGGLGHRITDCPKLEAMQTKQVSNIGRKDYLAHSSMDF
# UniProt Q9NP58: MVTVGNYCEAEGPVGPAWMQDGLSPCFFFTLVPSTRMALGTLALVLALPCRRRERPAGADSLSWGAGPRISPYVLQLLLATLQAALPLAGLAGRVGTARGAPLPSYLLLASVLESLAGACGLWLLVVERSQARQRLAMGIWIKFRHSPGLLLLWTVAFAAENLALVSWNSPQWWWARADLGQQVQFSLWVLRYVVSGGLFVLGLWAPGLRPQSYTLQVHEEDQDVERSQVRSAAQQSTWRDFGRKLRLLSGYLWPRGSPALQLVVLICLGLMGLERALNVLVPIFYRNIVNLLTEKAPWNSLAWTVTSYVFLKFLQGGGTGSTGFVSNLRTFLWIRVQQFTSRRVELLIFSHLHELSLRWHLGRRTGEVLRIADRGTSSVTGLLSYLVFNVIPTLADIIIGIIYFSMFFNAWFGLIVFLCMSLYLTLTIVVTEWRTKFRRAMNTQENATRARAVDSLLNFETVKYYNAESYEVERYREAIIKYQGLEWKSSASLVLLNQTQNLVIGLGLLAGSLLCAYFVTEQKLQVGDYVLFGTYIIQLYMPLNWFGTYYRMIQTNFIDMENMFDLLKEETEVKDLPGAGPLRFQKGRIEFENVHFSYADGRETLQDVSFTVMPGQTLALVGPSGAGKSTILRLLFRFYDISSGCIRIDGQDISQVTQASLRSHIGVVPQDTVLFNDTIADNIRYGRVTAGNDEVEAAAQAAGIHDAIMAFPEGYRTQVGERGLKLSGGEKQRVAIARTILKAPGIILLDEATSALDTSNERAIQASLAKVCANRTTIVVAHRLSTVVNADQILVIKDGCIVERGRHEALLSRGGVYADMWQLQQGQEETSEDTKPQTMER
# UniProt P49848, whole entry: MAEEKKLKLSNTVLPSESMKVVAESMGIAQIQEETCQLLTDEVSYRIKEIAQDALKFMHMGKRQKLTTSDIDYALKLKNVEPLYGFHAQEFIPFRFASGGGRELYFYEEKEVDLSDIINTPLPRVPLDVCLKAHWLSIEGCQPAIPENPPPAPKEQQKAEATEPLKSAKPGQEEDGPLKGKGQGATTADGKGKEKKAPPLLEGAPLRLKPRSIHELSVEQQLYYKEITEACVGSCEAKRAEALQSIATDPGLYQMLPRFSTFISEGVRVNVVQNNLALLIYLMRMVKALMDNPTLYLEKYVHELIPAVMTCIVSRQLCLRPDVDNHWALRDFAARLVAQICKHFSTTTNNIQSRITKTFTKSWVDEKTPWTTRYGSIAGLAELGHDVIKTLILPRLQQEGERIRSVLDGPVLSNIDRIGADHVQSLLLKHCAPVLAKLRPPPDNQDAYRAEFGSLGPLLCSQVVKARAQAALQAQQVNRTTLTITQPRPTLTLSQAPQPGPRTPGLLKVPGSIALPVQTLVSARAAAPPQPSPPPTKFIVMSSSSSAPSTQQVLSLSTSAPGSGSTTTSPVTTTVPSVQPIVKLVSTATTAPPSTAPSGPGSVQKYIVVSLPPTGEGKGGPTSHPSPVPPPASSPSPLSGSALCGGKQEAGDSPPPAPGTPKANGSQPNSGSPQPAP
# UniProt Q99611, whole entry: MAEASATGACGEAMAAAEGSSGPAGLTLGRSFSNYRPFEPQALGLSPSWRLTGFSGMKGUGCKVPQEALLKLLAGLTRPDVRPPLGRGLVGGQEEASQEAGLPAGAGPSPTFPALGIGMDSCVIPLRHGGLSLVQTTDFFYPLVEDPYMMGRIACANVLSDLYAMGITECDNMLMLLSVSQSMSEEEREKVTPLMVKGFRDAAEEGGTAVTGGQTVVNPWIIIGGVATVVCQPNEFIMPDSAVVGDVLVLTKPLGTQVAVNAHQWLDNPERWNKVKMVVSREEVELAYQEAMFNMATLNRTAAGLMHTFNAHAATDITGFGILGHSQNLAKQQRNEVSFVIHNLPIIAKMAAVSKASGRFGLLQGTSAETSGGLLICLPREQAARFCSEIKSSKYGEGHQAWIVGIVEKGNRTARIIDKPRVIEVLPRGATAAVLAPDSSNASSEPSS
# ± gives the standard deviation of the averaged measurements. Only a part is listed here, and it is no random draw. Most entries show no effect beyond the scatter of the controls.
# Compound: Nc1ncnc2c1ncn2[C@@H]1O[C@H](COP(=O)(O)OP(=O)(O)NP(=O)(O)O)[C@@H](O)[C@H]1O [adenylyl imidodiphosphate]
# Experiment: NP40-soluble protein abundance relative to vehicle (solubility fold change) (ratio); higher = more soluble protein in presence of AMP-PNP
# Settings: concentration: 0.1mM
# Outline: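 Jurkat crude lysate prepared with a Dounce homogeniser was treated at eight concentrations spanning 0.1 to 10 mM, 10 min at room temperature then 3 min at 37 °C. Solubilisation with 0.8% NP40 and benzonase and ultracentrifugation preceded TMT labelling of the supernatant for LC-MS/MS. Fold change against the detergent-processed vehicle was determined per replicate from vsn-normalised intensities, across three independent experiments.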
row,Target,NP40-soluble protein abundance
1,H7C2Q8 and related entries (UniProt Q99848),1 ± 0.018
2,H3BPZ0 and related entries (UniProt Q6PCT2),1.02 ± 0.042
3,H3BRL0 and related entries (UniProt Q9BXC9),1.001 ± 0.0068
4,H0YD36 and related entries (UniProt P54098),0.998 ± 0.015
5,H0YMG7 and related entries (UniProt O94788),1.03 ± 0.064
6,H7BYF2 and related entries (UniProt Q9BVL2),0.969 ± 0.021
7,G3XAG1 and related entries (UniProt Q96ME7),1 ± 0.028
8,H3BRF9 and related entries (UniProt Q96K21),0.9639 ± 0.0082
9,H7C0G7 and related entries (UniProt Q9H9Q4),1.02 ± 0.012
10,J3QSH4 and related entries (UniProt Q14119),0.963 ± 0.021
11,I3L2J0 and related entries (UniProt Q96RK0),0.996 ± 0.052
12,H0Y7P7 and related entries (UniProt Q9UG56),0.968 ± 0.019
13,J3KPP4 and related entries (UniProt O95232),1.05 ± 0.044
14,J3KNZ9 (UniProt Q9HAH7),0.982 ± 0.013
15,G8JLQ3 and related entries (UniProt P78537),0.9997 ± 0.0085
16,H7BYU6 and related entries (UniProt Q96K83),0.987 ± 0.042
17,J3KNQ1 and related entries (UniProt Q6P2D0),0.966 ± 0.039
18,G5E9C8 and related entries (UniProt Q07889),1.002 ± 0.0037
19,J3KNN5 and related entries (UniProt Q9UJV9),1.06 ± 0.026

row,Target,NP40-soluble protein abundance
1,H3BSD9 and related entries (UniProt Q6PIF6),1.077 ± 0.0075
2,H3BQW8 and related entries (UniProt Q16775),0.998 ± 0.029
3,H7BXK9 and related entries (UniProt Q9NP58),0.9772 ± 0.0072
4,J3QQJ5 and related entries (UniProt Q9Y2L5),0.991 ± 0.043
5,J3KR72 and related entries (UniProt P49848),1.01 ± 0.032
6,J3KR58 and related entries (UniProt Q99611),1.04 ± 0.046
7,H3BNW0 and related entries (UniProt Q9NXG2),0.973 ± 0.027
8,G5E9V5 and related entries (UniProt P82650),1.04 ± 0.046
9,H7BZB3 and related entries (UniProt P27708),1.04 ± 0.028
10,H7C127 and related entries (UniProt Q9H0E9),1.01 ± 0.026
11,H0YLE6 and related entries (UniProt Q9NWH9),0.975 ± 0.047
12,I3L1P8 and related entries (UniProt Q02978),1.02 ± 0.035
13,H3BPJ9 and related entries (UniProt O96000),1.01 ± 0.093
14,H0YJ21 and related entries (UniProt Q14204),1.05 ± 0.027
15,H0Y4B0 and related entries (UniProt O43414),1.015 ± 0.0086
16,I3L1K6 and related entries (UniProt P12829),0.94 ± 0.011
17,K7EIU8 and related entries (UniProt Q13485),1.03 ± 0.052
18,UniProt I3L0E3,1.03 ± 0.042
19,J3KTL2 and related entries (UniProt Q07955),0.995 ± 0.04

# Same assay, conditions: concentration: 0.5mM
row,Target,NP40-soluble protein abundance
1,H7C2Q8 and related entries (UniProt Q99848),0.996 ± 0.033
2,H3BPZ0 and related entries (UniProt Q6PCT2),1.02 ± 0.036
3,H3BRL0 and related entries (UniProt Q9BXC9),0.978 ± 0.05
4,H0YD36 and related entries (UniProt P54098),0.97 ± 0.043
5,H0YMG7 and related entries (UniProt O94788),0.999 ± 0.062
6,H7BYF2 and related entries (UniProt Q9BVL2),1 ± 0.082
7,G3XAG1 and related entries (UniProt Q96ME7),1.07 ± 0.057
8,H3BRF9 and related entries (UniProt Q96K21),0.963 ± 0.02
9,H7C0G7 and related entries (UniProt Q9H9Q4),1.05 ± 0.022
10,J3QSH4 and related entries (UniProt Q14119),0.973 ± 0.048
11,I3L2J0 and related entries (UniProt Q96RK0),0.972 ± 0.01
12,H0Y7P7 and related entries (UniProt Q9UG56),0.9579 ± 0.0055
13,J3KPP4 and related entries (UniProt O95232),1.03 ± 0.022
14,J3KNZ9 (UniProt Q9HAH7),1.01 ± 0.013
15,G8JLQ3 and related entries (UniProt P78537),1.01 ± 0.015
16,H7BYU6 and related entries (UniProt Q96K83),0.9846 ± 0.0061
17,J3KNQ1 and related entries (UniProt Q6P2D0),1.012 ± 0.0039
18,G5E9C8 and related entries (UniProt Q07889),0.998 ± 0.029
19,J3KNN5 and related entries (UniProt Q9UJV9),1.06 ± 0.027

row,Target,NP40-soluble protein abundance
1,H3BSD9 and related entries (UniProt Q6PIF6),1 ± 0.075
2,H3BQW8 and related entries (UniProt Q16775),1.05 ± 0.074
3,H7BXK9 and related entries (UniProt Q9NP58),0.953 ± 0.016
4,J3QQJ5 and related entries (UniProt Q9Y2L5),0.95 ± 0.063
5,J3KR72 and related entries (UniProt P49848),1.06 ± 0.042
6,J3KR58 and related entries (UniProt Q99611),1.01 ± 0.07
7,H3BNW0 and related entries (UniProt Q9NXG2),1.02 ± 0.067
8,G5E9V5 and related entries (UniProt P82650),0.984 ± 0.072
9,H7BZB3 and related entries (UniProt P27708),1 ± 0.076
10,H7C127 and related entries (UniProt Q9H0E9),1.03 ± 0.06
11,H0YLE6 and related entries (UniProt Q9NWH9),1.01 ± 0.035
12,I3L1P8 and related entries (UniProt Q02978),0.968 ± 0.029
13,H3BPJ9 and related entries (UniProt O96000),1.03 ± 0.15
14,H0YJ21 and related entries (UniProt Q14204),0.994 ± 0.083
15,H0Y4B0 and related entries (UniProt O43414),1.01 ± 0.066
16,I3L1K6 and related entries (UniProt P12829),0.967 ± 0.011
17,K7EIU8 and related entries (UniProt Q13485),1.01 ± 0.05
18,UniProt I3L0E3,1.01 ± 0.075
19,J3KTL2 and related entries (UniProt Q07955),1.07 ± 0.12
